From US20220074941A1, “HSP90 COMBINATION THERAPY” (Sloan-Kettering Institute for Cancer Research, priority 2011, published 2022)

B1: Inhibitor of nuclear factor kappa-B kinase subunit alpha (protein, UniProt O15111 1-745, looked up)
Inhibitor of nuclear factor …: MERPPGLRPGAGGPWEMRERLGTGGFGNVCLYQHRELDLKIAIKSCRLELSTKNRERWCHEIQIMKKLNHANVVKACDVPEELNILIHDVPLLAMEYCSGGDLRKLLNKPENCCGLKESQILSLLSDIGSGIRYLHENKIIHRDLKPENIVLQDVGGKIIHKIIDLGYAKDVDQGSLCTSFVGTLQYLAPELFENKPYTATVDYWSFGTMVFECIAGYRPFLHHLQPFTWHEKIKKKDPKCIFACEEMSGEVRFSSHLPQPNSLCSLVVEPMENWLQLMLNWDPQQRGGPVDLTLKQPRCFVLMDHILNLKIVHILNMTSAKIISFLLPPDESLHSLQSRIERETGINTGSQELLSETGISLDPRKPASQCVLDGVRGCDSYMVYLFDKSKTVYEGPFASRSLSDCVNYIVQDSKIQLPIIQLRKVWAEAVHYVSGLKEDYSRLFQGQRAAMLSLLRYNANLTKMKNTLISASQQLKAKLEFFHKSIQLDLERYSEQMTYGISSEKMLKAWKEMEEKAIHYAEVGVIGYLEDQIMSLHAEIMELQKSPYGRRQGDLMESLEQRAIDLYKQLKHRPSDHSYSDSTEMVKIIVHTVQSQDRVLKELFGHLSKLLGCKQKIIDLLPKVEVALSNIKEADNTVMFMQGKRQKEIWHLLKIACTQSSARSLVGSSLEGAVTPQTSAWLPPTSAEHDHSLSCVVTPQDGETSAQMIEENLNCLGHLSTIIHEANEEQGNSMMNLDWSWLTE
B2: Serine/threonine-protein phosphatase 6 regulatory subunit 3; SAPS3 (protein, UniProt Q5H9R7 1-873, looked up)
Serine/threonine-protein …: MFWKFDLHSSSHIDTLLEREDVTLKELMDEEDVLQECKAQNRKLIEFLLKAECLEDLVSFIIEEPPQDMDEKIRYKYPNISCELLTSDVSQMNDRLGEDESLLMKLYSFLLNDSPLNPLLASFFSKVLSILISRKPEQIVDFLKKKHDFVDLIIKHIGTSAIMDLLLRLLTCIEPPQPRQDVLNWLNEEKIIQRLVEIVHPSQEEDRHSNASQSLCEIVRLSRDQMLQIQNSTEPDPLLATLEKQEIIEQLLSNIFHKEKNESAIVSAIQILLTLLETRRPTFEGHIEICPPGMSHSACSVNKSVLEAIRGRLGSFHELLLEPPKKSVMKTTWGVLDPPVGNTRLNVIRLISSLLQTNTSSINGDLMELNSIGVILNMFFKYTWNNFLHTQVEICIALILASPFENTENATITDQDSTGDNLLLKHLFQKCQLIERILEAWEMNEKKQAEGGRRHGYMGHLTRIANCIVHSTDKGPNSALVQQLIKDLPDEVRERWETFCTSSLGETNKRNTVDLVTTCHIHSSSDDEIDFKETGFSQDSSLQQAFSDYQMQQMTSNFIDQFGFNDEKFADQDDIGNVSFDRVSDINFTLNTNESGNIALFEACCKERIQQFDDGGSDEEDIWEEKHIAFTPESQRRSSSGSTDSEESTDSEEEDGAKQDLFEPSSANTEDKMEVDLSEPPNWSANFDVPMETTHGAPLDSVGSDVWSTEEPMPTKETGWASFSEFTSSLSTKDSLRSNSPVEMETSTEPMDPLTPSAAALAVQPEAAGSVAMEASSDGEEDAESTDKVTETVMNGGMKETLSLTVDAKTETAVFKSEEGKLSTSQDAACKDAEECPETAEAKCAAPRPPSSSPEQRTGQPSAPGDTSVNGPV
B3: Interleukin enhancer-binding factor 3; ILF3 (protein, UniProt Q12906 1-894, looked up)
Interleukin enhancer-binding …: MRPMRIFVNDDRHVMAKHSSVYPTQEELEAVQNMVSHTERALKAVSDWIDEQEKGSSEQAESDNMDVPPEDDSKEGAGEQKTEHMTRTLRGVMRVGLVAKGLLLKGDLDLELVLLCKEKPTTALLDKVADNLAIQLAAVTEDKYEILQSVDDAAIVIKNTKEPPLSLTIHLTSPVVREEMEKVLAGETLSVNDPPDVLDRQKCLAALASLRHAKWFQARANGLKSCVIVIRVLRDLCTRVPTWGPLRGWPLELLCEKSIGTANRPMGAGEALRRVLECLASGIVMPDGSGIYDPCEKEATDAIGHLDRQQREDITQSAQHALRLAAFGQLHKVLGMDPLPSKMPKKPKNENPVDYTVQIPPSTTYAITPMKRPMEEDGEEKSPSKKKKKIQKKEEKAEPPQAMNALMRLNQLKPGLQYKLVSQTGPVHAPIFTMSVEVDGNSFEASGPSKKTAKLHVAVKVLQDMGLPTGAEGRDSSKGEDSAEETEAKPAVVAPAPVVEAVSTPSAAFPSDATAEQGPILTKHGKNPVMELNEKRRGLKYELISETGGSHDKRFVMEVEVDGQKFQGAGSNKKVAKAYAALAALEKLFPDTPLALDANKKKRAPVPVRGGPKFAAKPHNPGFGMGGPMHNEVPPPPNLRGRGRGGSIRGRGRGRGFGGANHGGYMNAGAGYGSYGYGGNSATAGYSQFYSNGGHSGNASGGGGGGGGGSSGYGSYYQGDNYNSPVPPKHAGKKQPHGGQQKPSYGSGYQSHQGQQQSYNQSPYSNYGPPQGKQKGYNHGQGSYSYSNSYNSPGGGGGSDYNYESKFNYSGSGGRSGGNSYGSGGASYNPGSHGGYGGGSGGGSSYQGKQGGYSQSNYNSPGSGQNYSGPPSSYQSSQGGYGRNADHSMNYQYR
B4: Arf-GAP with coiled-coil, ANK repeat and PH domain-containing protein 2 (protein, UniProt Q15057 1-778, looked up)
Arf-GAP with coiled-coil, ANK …: MKMTVDFEECLKDSPRFRAALEEVEGDVAELELKLDKLVKLCIAMIDTGKAFCVANKQFMNGIRDLAQYSSNDAVVETSLTKFSDSLQEMINFHTILFDQTQRSIKAQLQNFVKEDLRKFKDAKKQFEKVSEEKENALVKNAQVQRNKQHEVEEATNILTATRKCFRHIALDYVLQINVLQSKRRSEILKSMLSFMYAHLAFFHQGYDLFSELGPYMKDLGAQLDRLVVDAAKEKREMEQKHSTIQQKDFSSDDSKLEYNVDAANGIVMEGYLFKRASNAFKTWNRRWFSIQNNQLVYQKKFKDNPTVVVEDLRLCTVKHCEDIERRFCFEVVSPTKSCMLQADSEKLRQAWIKAVQTSIATAYREKGDESEKLDKKSSPSTGSLDSGNESKEKLLKGESALQRVQCIPGNASCCDCGLADPRWASINLGITLCIECSGIHRSLGVHFSKVRSLTLDTWEPELLKLMCELGNDVINRVYEANVEKMGIKKPQPGQRQEKEAYIRAKYVERKFVDKYSISLSPPEQQKKFVSKSSEEKRLSISKFGPGDQVRASAQSSVRSNDSGIQQSSDDGRESLPSTVSANSLYEPEGERQDSSMFLDSKHLNPGLQLYRASYEKNLPKMAEALAHGADVNWANSEENKATPLIQAVLGGSLVTCEFLLQNGANVNQRDVQGRGPLHHATVLGHTGQVCLFLKRGANQHATDEEGKDPLSIAVEAANADIVTLLRLARMNEEMRESEGLYGQPGDETYQDIFRDFSQMASNNPEKLNRFQQDSQKF

Tested on: Hsp90 complexes in K562 cell extract
Experiment: Nano-LC-MS/MS of PU-beads pull-downs
Type: binding
Conditions: for Matched Peptides by Fraction JA04 / MAXIMUM matched peptides / Matched Peptides by Fraction JA03 / Matched Peptides by Fraction JA10 / Matched Peptides by Fraction JA11: PU-beads pull-down; for Matched Peptides by Fraction JA04: Run1, gel size cut 80-110; for MAXIMUM matched peptides: maximum over fractions JA01-JA14; for Total fmol: protein isolated in PU-beads pull-downs, Waters Xevo QTof MS; for Matched Peptides by Fraction JA03: Run1, gel size cut 110-150; for Matched Peptides by Fraction JA10: Run2, gel size cut 110-150; for Matched Peptides by Fraction JA11: Run2, gel size cut 80-110
How it was run: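 Lysates pre-cleared overnight at 4 °C with control beads, then pulled down with PU-beads or control beads; eluted proteins (2% SDS boil) gel-separated and analysed by nano LC-MS/MS on a QTof. Mascot identification (p<0.05), spectral counts and sequence coverage evaluated in Scaffold.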

Molecule	Matched Peptides by Fraction JA04	MAXIMUM matched peptides	Total fmol [fmol]	Matched Peptides by Fraction JA03	Matched Peptides by Fraction JA10	Matched Peptides by Fraction JA11
B1	16	16	2.1707	–	–	–
B2	–	24	10.1079	16	24	–
B3	20	21	16.2442	9	9	21
B4	18	22	4.8244	–	–	22
